Source: article PMC9275889
Results are given in words; binding and its absence hold for the method and conditions named. In cells and extracts the contact can be indirect. Some results given as binding are weak or reduced against the parent protein; the word gives no strength.

Chains of the proteins cited; added tags and fusions are not shown. Lines headed by an entry give the natural chain unless they say otherwise; changes in a name come on top. Residues count along the entry.
UniProt Q9NPD8: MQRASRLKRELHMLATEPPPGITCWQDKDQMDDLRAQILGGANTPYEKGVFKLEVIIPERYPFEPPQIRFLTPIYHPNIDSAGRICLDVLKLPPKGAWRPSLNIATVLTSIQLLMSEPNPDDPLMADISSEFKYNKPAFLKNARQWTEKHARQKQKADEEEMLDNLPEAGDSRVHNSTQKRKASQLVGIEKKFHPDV
UniProt Q9UBX5, residues 24-448: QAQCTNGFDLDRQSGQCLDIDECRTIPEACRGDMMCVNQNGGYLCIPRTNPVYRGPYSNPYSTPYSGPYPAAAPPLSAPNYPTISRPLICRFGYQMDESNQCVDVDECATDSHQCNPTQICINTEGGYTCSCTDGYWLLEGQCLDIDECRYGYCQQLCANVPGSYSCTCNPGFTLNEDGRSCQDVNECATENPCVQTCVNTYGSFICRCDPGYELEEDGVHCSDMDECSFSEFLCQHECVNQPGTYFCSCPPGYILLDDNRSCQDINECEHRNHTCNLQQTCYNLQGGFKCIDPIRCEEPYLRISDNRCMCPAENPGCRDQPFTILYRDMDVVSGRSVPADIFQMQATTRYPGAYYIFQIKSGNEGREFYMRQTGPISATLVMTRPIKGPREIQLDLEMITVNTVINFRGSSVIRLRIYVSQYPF

Molecular target: GST-UBE2T (ubiquitin-conjugating enzyme E2T) (human) (UniProt Q9NPD8)
Assay: pull-down; GST-UBE2T on GST beads (3 h), then Flag-FBLN5 from H1975 cell lysate added for 3 h; washed five times; detected by western blotting; only the target purified

binding: binds
Substance: Flag-FBLN5 (fibulin-5) (from UniProt Q9UBX5 24-448)
